Where two headings read alike, the source gives them in different places. These are yes or no findings as the source states them, for the method shown. In cells and extracts the contact can be indirect. These calls come from enrichment with a bait or labelling near it, and not all partners need be listed.

Protein sequences, listed by entry. Tags and fused reporters are not part of them. Residues count along the entry.
UniProt Q9BRJ7, residues 6-211: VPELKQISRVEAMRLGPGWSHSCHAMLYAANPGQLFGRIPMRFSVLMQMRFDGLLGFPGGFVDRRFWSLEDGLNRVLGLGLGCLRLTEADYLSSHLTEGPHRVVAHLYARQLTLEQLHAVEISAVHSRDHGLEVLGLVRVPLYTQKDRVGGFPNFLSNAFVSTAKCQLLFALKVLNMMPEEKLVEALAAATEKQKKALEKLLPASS
UniProt P11021, residues 19-654: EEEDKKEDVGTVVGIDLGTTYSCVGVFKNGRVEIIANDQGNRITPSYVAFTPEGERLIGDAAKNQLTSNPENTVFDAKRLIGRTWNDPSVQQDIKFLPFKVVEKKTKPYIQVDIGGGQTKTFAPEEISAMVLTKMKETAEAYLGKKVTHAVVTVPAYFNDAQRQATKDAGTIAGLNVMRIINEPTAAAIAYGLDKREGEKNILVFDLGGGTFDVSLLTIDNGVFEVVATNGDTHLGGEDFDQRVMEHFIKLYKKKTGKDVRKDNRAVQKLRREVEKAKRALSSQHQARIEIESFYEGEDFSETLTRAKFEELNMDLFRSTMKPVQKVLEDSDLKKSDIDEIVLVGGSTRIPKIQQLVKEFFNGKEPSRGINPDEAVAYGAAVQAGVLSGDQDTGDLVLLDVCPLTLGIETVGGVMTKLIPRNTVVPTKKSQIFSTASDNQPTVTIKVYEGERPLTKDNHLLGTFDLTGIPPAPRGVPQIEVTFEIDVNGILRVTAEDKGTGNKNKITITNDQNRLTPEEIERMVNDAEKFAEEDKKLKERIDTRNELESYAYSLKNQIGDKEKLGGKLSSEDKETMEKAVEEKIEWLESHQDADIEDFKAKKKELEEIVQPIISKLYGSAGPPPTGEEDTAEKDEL
UniProt O95816: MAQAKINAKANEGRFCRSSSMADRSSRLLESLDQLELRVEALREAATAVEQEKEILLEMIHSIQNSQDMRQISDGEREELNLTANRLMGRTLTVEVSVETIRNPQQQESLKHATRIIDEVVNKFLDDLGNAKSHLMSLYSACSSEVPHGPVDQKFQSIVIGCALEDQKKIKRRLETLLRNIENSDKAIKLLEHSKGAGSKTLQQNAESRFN
UniProt P11142: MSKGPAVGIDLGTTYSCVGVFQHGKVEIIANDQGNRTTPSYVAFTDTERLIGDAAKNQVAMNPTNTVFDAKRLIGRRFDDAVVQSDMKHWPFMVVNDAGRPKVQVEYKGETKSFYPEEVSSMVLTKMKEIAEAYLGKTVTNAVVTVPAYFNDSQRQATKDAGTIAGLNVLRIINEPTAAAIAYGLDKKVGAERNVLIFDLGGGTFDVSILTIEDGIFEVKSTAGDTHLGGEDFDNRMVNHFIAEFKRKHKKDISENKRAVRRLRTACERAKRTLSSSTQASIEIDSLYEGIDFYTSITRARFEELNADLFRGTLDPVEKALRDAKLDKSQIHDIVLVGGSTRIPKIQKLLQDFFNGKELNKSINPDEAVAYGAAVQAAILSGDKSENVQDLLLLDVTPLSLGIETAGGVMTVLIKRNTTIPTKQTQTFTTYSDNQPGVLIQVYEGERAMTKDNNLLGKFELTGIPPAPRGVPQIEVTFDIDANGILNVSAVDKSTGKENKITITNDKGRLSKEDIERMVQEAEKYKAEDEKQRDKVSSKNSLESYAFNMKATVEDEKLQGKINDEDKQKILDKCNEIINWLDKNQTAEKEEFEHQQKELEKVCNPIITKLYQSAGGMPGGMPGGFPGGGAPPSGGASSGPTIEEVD
UniProt Q9UBN7: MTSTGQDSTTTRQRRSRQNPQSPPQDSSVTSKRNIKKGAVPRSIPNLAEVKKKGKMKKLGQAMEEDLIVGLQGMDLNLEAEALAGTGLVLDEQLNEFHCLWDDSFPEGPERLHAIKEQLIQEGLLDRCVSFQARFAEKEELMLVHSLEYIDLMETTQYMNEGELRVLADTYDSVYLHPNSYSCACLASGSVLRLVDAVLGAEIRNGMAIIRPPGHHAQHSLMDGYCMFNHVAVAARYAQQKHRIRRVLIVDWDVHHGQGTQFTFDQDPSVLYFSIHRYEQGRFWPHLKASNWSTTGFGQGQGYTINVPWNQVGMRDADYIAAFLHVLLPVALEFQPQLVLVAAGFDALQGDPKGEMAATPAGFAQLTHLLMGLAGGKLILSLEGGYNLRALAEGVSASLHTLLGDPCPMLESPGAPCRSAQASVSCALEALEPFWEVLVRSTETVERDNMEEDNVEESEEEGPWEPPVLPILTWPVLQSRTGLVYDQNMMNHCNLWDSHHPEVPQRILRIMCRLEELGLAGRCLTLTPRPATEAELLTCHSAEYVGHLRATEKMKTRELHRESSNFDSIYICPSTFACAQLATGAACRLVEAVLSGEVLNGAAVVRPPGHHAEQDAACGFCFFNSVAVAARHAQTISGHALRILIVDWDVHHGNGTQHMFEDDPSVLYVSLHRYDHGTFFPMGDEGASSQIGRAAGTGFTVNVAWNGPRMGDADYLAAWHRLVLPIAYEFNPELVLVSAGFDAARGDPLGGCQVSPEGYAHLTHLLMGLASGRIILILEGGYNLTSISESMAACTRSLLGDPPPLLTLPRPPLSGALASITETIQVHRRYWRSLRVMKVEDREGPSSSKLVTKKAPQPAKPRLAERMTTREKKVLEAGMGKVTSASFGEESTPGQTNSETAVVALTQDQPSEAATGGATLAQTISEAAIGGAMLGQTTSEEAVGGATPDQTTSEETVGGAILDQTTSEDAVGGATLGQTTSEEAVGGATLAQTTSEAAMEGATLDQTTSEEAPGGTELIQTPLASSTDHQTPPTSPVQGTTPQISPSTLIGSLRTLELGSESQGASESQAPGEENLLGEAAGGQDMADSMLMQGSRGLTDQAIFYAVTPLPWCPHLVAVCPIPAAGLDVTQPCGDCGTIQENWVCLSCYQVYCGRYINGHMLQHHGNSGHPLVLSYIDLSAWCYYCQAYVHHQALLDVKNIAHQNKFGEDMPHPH
UniProt Q01650: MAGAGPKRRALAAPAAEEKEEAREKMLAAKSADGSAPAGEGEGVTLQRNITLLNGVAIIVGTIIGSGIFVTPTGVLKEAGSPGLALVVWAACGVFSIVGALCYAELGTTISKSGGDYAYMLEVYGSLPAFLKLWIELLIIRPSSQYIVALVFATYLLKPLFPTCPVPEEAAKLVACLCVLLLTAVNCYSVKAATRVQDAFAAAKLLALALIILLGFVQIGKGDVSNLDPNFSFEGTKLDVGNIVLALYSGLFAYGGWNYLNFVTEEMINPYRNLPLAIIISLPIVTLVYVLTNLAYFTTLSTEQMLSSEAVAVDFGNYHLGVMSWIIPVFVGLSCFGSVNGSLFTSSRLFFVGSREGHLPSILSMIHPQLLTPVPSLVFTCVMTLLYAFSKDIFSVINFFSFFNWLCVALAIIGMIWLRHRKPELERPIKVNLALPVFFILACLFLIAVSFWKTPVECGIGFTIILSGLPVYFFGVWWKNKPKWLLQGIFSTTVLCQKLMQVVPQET
UniProt P48643: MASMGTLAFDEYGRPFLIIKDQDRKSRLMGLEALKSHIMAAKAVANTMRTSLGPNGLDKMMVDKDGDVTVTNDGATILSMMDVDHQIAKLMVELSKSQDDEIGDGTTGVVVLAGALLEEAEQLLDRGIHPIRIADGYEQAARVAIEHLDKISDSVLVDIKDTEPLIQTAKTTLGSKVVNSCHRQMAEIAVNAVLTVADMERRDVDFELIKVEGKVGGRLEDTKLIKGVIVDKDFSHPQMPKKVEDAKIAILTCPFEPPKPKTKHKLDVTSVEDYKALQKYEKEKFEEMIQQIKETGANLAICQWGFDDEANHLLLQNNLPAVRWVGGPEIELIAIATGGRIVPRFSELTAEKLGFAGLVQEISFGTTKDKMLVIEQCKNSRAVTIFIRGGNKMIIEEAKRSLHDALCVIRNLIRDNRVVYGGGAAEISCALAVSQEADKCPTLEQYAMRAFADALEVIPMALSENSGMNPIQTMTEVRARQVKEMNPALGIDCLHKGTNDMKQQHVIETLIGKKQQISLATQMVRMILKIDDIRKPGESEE
UniProt Q99832: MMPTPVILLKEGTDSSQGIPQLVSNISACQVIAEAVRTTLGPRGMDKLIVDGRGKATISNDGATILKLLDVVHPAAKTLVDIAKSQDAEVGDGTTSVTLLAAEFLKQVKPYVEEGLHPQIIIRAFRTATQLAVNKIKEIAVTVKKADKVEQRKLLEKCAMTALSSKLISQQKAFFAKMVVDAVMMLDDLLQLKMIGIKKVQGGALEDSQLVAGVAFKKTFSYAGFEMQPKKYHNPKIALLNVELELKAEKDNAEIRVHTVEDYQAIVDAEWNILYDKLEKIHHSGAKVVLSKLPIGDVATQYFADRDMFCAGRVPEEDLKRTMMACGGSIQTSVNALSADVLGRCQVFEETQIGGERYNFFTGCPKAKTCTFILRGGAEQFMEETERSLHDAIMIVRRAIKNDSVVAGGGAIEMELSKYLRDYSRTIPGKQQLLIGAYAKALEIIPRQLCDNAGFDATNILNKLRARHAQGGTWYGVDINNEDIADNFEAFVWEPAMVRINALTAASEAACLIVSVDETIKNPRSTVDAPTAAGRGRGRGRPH
UniProt P50990: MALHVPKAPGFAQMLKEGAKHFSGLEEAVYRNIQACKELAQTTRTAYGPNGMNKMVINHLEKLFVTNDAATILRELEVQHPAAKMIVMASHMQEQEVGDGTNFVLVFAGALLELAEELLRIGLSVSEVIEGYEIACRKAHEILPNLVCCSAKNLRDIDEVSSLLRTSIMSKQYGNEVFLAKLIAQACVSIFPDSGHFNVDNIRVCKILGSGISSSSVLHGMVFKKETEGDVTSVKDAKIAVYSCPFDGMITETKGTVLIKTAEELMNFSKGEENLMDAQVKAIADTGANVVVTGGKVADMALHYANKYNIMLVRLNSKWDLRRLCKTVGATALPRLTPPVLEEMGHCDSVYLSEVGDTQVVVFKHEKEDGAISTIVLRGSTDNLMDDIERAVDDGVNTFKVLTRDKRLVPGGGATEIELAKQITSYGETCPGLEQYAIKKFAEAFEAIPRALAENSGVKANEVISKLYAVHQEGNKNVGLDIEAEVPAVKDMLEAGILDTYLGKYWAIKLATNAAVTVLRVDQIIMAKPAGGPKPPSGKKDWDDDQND
UniProt Q15170: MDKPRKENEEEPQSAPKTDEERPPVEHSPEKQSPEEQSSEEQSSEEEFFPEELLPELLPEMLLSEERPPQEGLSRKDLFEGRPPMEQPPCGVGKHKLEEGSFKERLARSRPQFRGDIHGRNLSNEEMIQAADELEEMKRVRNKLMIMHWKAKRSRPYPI
UniProt P68366: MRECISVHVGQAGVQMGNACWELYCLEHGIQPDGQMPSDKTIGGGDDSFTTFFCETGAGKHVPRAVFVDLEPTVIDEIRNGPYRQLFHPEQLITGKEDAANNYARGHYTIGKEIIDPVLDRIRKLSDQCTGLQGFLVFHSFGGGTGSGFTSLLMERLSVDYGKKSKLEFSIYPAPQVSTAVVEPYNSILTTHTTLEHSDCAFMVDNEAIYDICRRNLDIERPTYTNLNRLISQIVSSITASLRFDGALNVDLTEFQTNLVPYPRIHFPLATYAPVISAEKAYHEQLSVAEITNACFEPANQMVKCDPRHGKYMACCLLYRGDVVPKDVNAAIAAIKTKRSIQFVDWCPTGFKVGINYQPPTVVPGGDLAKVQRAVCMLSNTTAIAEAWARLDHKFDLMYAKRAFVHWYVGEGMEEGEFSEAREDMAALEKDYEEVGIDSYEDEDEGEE
UniProt Q3ZCM7: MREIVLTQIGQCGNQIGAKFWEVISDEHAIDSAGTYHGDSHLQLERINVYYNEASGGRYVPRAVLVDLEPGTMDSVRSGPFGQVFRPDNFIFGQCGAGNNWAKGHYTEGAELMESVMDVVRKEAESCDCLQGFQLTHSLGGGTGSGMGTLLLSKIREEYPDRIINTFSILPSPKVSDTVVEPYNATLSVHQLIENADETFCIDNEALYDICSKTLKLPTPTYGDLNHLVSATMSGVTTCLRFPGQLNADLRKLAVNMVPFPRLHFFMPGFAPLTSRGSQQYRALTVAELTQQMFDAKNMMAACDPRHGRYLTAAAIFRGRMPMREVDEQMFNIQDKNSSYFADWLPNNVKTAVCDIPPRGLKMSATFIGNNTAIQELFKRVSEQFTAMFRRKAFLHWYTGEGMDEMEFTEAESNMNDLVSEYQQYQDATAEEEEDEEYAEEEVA
UniProt Q96DE0: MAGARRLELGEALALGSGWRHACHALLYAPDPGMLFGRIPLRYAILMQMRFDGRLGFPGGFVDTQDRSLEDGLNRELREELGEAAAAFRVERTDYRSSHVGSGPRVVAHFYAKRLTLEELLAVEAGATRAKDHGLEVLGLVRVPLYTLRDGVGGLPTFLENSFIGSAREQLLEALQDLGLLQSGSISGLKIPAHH

This note sets out measurements from publication PMC6294507.

Assay [1] has as its target SDOS-eGFP (human) (UniProt Q9BRJ7). The assay can be described thus: affinity purification with mass spectrometry; eGFP-fusion proteins captured from HeLa Flp In TRex lysates on GFP-Trap agarose beads, 2 h, 4 C; lysis buffer 150 mM NaCl, 10 mM Tris-HCl pH 7.5, 1% Triton X-100, 5 mM MgCl2, 5 mM DTT; RNase A during the second wash; label-free quantitative proteomics against unfused eGFP.

Assay [2] has the same target. Described as above. The source holds these as a separate data set.

“78 kDa glucose-regulated protein (from UniProt P11021 19-654)”: the binding entry in the assay with SDOS-eGFP (human) [1] was “binds”.

Regarding “BAG family molecular chaperone regulator 2 (from UniProt O95816 1-211)”, in the assay with SDOS-eGFP (human) [1], the binding result was “binds”.

For the molecule “Heat shock cognate 71 kDa protein (from UniProt P11142 1-646)”, the binding result with SDOS-eGFP (human) [1] is “binds”.

As for “Histone deacetylase 6 (from UniProt Q9UBN7 1-1215) (enzyme)”, the binding result with SDOS-eGFP (human) [1] is reported as “binds”.

On to “Laminin subunit alpha-1 (from UniProt P25391 18-3075)”, for which the binding entry in the assay with SDOS-eGFP (human) [1] was “binds”.

“Large neutral amino acids transporter small subunit 1 (from UniProt Q01650 1-507)”: the binding result in the assay with SDOS-eGFP (human) [1] is recorded as “binds”.

Regarding “Sequestosome-1 (from UniProt Q13501 1-440)”, the binding entry with SDOS-eGFP (human) [1] is listed as “binds”.

“T-complex protein 1 subunit epsilon (from UniProt P48643 1-541)”: in the assay with SDOS-eGFP (human) [1], the binding entry is listed as “binds”.

Consider “T-complex protein 1 subunit eta (from UniProt Q99832 1-543)”, for which, in the assay with SDOS-eGFP (human) [1], the binding entry is reported as “binds”.

Take “T-complex protein 1 subunit theta (from UniProt P50990 1-548)”: in the assay with SDOS-eGFP (human) [1], the binding entry is given as “binds”.

Turning to “Transcription elongation factor A protein-like 1 (from UniProt Q15170 1-159)”, the binding entry with SDOS-eGFP (human) [1] was “binds”.

For the molecule “Tubulin alpha-4A chain (from UniProt P68366 1-448)”, the binding result in the assay with SDOS-eGFP (human) [1] is given as “binds”.

Turning to “Tubulin beta-8 chain (from UniProt Q3ZCM7 1-444)”, the binding result with SDOS-eGFP (human) [1] is listed as “binds”.

As to “Tumor suppressor p53-binding protein 1 (from UniProt Q12888 1-1972)”, in the assay with SDOS-eGFP (human) [1], the binding result was “binds”.

With “U8 snoRNA-decapping enzyme (from UniProt Q96DE0 1-195)”, the binding result in the assay with SDOS-eGFP (human) [1] was “binds”.

Turning to “Ubiquitin carboxyl-terminal hydrolase 11 (from UniProt P51784 1-963) (enzyme)”, the binding result in the assay with SDOS-eGFP (human) [1] was “binds”.

B1: T-complex protein 1 subunit beta (protein, UniProt P78371 1-535)
chain: MASLSLAPVNIFKAGADEERAETARLTSFIGAIAIGDLVKSTLGPKGMDKILLSSGRDASLMVTNDGATILKNIGVDNPAAKVLVDMSRVQDDEVGDGTTSVTVLAAELLREAESLIAKKIHPQTIIAGWREATKAAREALLSSAVDHGSDEVKFRQDLMNIAGTTLSSKLLTHHKDHFTKLAVEAVLRLKGSGNLEAIHIIKKLGGSLADSYLDEGFLLDKKIGVNQPKRIENAKILIANTGMDTDKIKIFGSRVRVDSTAKVAEIEHAEKEKMKEKVERILKHGINCFINRQLIYNYPEQLFGAAGVMAIEHADFAGVERLALVTGGEIASTFDHPELVKLGSCKLIEEVMIGEDKLIHFSGVALGEACTIVLRGATQQILDEAERSLHDALCVLAQTVKDSRTVYGGGCSEMLMAHAVTQLANRTPGKEAVAMESYAKALRMLPTIIADNAGYDSADLVAQLRAAHSEGNTTAGLDMREGTIGDMAILGITESFQVKRQVLLSAAEAAEVILRVDNIIKAAPRKRVPDHHPC
In the case of B1, the binding entry with SDOS-eGFP (human) [2] was “binds”.

B2: Serine/threonine-protein phosphatase 6 regulatory ankyrin repeat subunit A (protein, UniProt O15084 1-1053)
chain: MAFLKLRDQPSLVQAIFNGDPDEVRALIFKKEDVNFQDNEKRTPLHAAAYLGDAEIIELLILSGARVNAKDSKWLTPLHRAVASCSEEAVQVLLKHSADVNARDKNWQTPLHIAAANKAVKCAEALVPLLSNVNVSDRAGRTALHHAAFSGHGEMVKLLLSRGANINAFDKKDRRAIHWAAYMGHIEVVKLLVSHGAEVTCKDKKSYTPLHAAASSGMISVVKYLLDLGVDMNEPNAYGNTPLHVACYNGQDVVVNELIDCGAIVNQKNEKGFTPLHFAAASTHGALCLELLVGNGADVNMKSKDGKTPLHMTALHGRFSRSQTIIQSGAVIDCEDKNGNTPLHIAARYGHELLINTLITSGADTAKRGIHGMFPLHLAALSGFSDCCRKLLSSGFDIDTPDDFGRTCLHAAAAGGNLECLNLLLNTGADFNKKDKFGRSPLHYAAANCNYQCLFALVGSGASVNDLDERGCTPLHYAATSDTDGKCLEYLLRNDANPGIRDKQGYNAVHYSAAYGHRLCLQLIASETPLDVLMETSGTDMLSDSDNRATISPLHLAAYHGHHQALEVLVQSLLDLDVRNSSGRTPLDLAAFKGHVECVDVLINQGASILVKDYILKRTPIHAAATNGHSECLRLLIGNAEPQNAVDIQDGNGQTPLMLSVLNGHTDCVYSLLNKGANVDAKDKWGRTALHRGAVTGHEECVDALLQHGAKCLLRDSRGRTPIHLSAACGHIGVLGALLQSAASMDANPATADNHGYTALHWACYNGHETCVELLLEQEVFQKTEGNAFSPLHCAVINDNEGAAEMLIDTLGASIVNATDSKGRTPLHAAAFTDHVECLQLLLSHNAQVNSVDSTGKTPLMMAAENGQTNTVEMLVSSASAELTLQDNSKNTALHLACSKGHETSALLILEKITDRNLINATNAALQTPLHVAARNGLTMVVQELLGKGASVLAVDENGYTPALACAPNKDVADCLALILATMMPVSSSSPLSSLTFNAINRYTNTSKTVSFEALPIMRNEPSSYCSFNNIGGEQEYLYTDVDELNDSDSETY
With B2, in the assay with SDOS-eGFP (human) [2], the binding entry is “binds”.

B3: Heat shock protein 75 kDa, mitochondrial (endogenous TRAP1) (protein, UniProt Q12931 60-704)
chain: STQTAEDKEEPLHSIISSTESVQGSTSKHEFQAETKKLLDIVARSLYSEKEVFIRELISNASDALEKLRHKLVSDGQALPEMEIHLQTNAEKGTITIQDTGIGMTQEELVSNLGTIARSGSKAFLDALQNQAEASSKIIGQFGVGFYSAFMVADRVEVYSRSAAPGSLGYQWLSDGSGVFEIAEASGVRTGTKIIIHLKSDCKEFSSEARVRDVVTKYSNFVSFPLYLNGRRMNTLQAIWMMDPKDVREWQHEEFYRYVAQAHDKPRYTLHYKTDAPLNIRSIFYVPDMKPSMFDVSRELGSSVALYSRKVLIQTKATDILPKWLRFIRGVVDSEDIPLNLSRELLQESALIRKLRDVLQQRLIKFFIDQSKKDAEKYAKFFEDYGLFMREGIVTATEQEVKEDIAKLLRYESSALPSGQLTSLSEYASRMRAGTRNIYYLCAPNRHLAEHSPYYEAMKKKDTEVLFCFEQFDELTLLHLREFDKKKLISVETDIVVDHYKEEKFEDRSPAAECLSEKETEELMAWMRNVLGSRVTNVKVTLRLDTHPAMVTVLEMGAARHFLRMQQLAKTQEERAQLLQPTLEINPRHALIKKLNQLRASEPGLAQLLVDQIYENAMIAAGLVDDPRAMVGRLNELLVKALERH
For B3, the binding entry with SDOS-eGFP (human) [2] is reported as “binds”.

B4: Mitochondrial dicarboxylate carrier (protein, UniProt Q9UBX3 1-287)
chain: MAAEARVSRWYFGGLASCGAACCTHPLDLLKVHLQTQQEVKLRMTGMALRVVRTDGILALYSGLSASLCRQMTYSLTRFAIYETVRDRVAKGSQGPLPFHEKVLLGSVSGLAGGFVGTPADLVNVRMQNDVKLPQGQRRNYAHALDGLYRVAREEGLRRLFSGATMASSRGALVTVGQLSCYDQAKQLVLSTGYLSDNIFTHFVASFIAGGCATFLCQPLDVLKTRLMNSKGEYQGVFHCAVETAKLGPLAFYKGLVPAGIRLIPHTVLTFVFLEQLRKNFGIKVPS
Take B4: the binding entry with SDOS-eGFP (human) [2] is recorded as “binds”.

B5: Serine/threonine-protein phosphatase 6 catalytic subunit (enzyme, UniProt O00743 1-305)
chain: MAPLDLDKYVEIARLCKYLPENDLKRLCDYVCDLLLEESNVQPVSTPVTVCGDIHGQFYDLCELFRTGGQVPDTNYIFMGDFVDRGYYSLETFTYLLALKAKWPDRITLLRGNHESRQITQVYGFYDECQTKYGNANAWRYCTKVFDMLTVAALIDEQILCVHGGLSPDIKTLDQIRTIERNQEIPHKGAFCDLVWSDPEDVDTWAISPRGAGWLFGAKVTNEFVHINNLKLICRAHQLVHEGYKFMFDEKLVTVWSAPNYCYRCGNIASIMVFKDVNTREPKLFRAVPDSERVIPPRTTTPYFL
For the molecule B5, the binding result in the assay with SDOS-eGFP (human) [2] is given as “binds”.

B6: Serine/threonine-protein phosphatase 6 regulatory subunit 3 (protein, UniProt Q5H9R7 1-873)
chain: MFWKFDLHSSSHIDTLLEREDVTLKELMDEEDVLQECKAQNRKLIEFLLKAECLEDLVSFIIEEPPQDMDEKIRYKYPNISCELLTSDVSQMNDRLGEDESLLMKLYSFLLNDSPLNPLLASFFSKVLSILISRKPEQIVDFLKKKHDFVDLIIKHIGTSAIMDLLLRLLTCIEPPQPRQDVLNWLNEEKIIQRLVEIVHPSQEEDRHSNASQSLCEIVRLSRDQMLQIQNSTEPDPLLATLEKQEIIEQLLSNIFHKEKNESAIVSAIQILLTLLETRRPTFEGHIEICPPGMSHSACSVNKSVLEAIRGRLGSFHELLLEPPKKSVMKTTWGVLDPPVGNTRLNVIRLISSLLQTNTSSINGDLMELNSIGVILNMFFKYTWNNFLHTQVEICIALILASPFENTENATITDQDSTGDNLLLKHLFQKCQLIERILEAWEMNEKKQAEGGRRHGYMGHLTRIANCIVHSTDKGPNSALVQQLIKDLPDEVRERWETFCTSSLGETNKRNTVDLVTTCHIHSSSDDEIDFKETGFSQDSSLQQAFSDYQMQQMTSNFIDQFGFNDEKFADQDDIGNVSFDRVSDINFTLNTNESGNIALFEACCKERIQQFDDGGSDEEDIWEEKHIAFTPESQRRSSSGSTDSEESTDSEEEDGAKQDLFEPSSANTEDKMEVDLSEPPNWSANFDVPMETTHGAPLDSVGSDVWSTEEPMPTKETGWASFSEFTSSLSTKDSLRSNSPVEMETSTEPMDPLTPSAAALAVQPEAAGSVAMEASSDGEEDAESTDKVTETVMNGGMKETLSLTVDAKTETAVFKSEEGKLSTSQDAACKDAEECPETAEAKCAAPRPPSSSPEQRTGQPSAPGDTSVNGPV
Consider B6, for which the binding result in the assay with SDOS-eGFP (human) [2] is “binds”.

B7: Heterogeneous nuclear ribonucleoprotein H3 (protein, UniProt P31942 1-346)
chain: MDWVMKHNGPNDASDGTVRLRGLPFGCSKEEIVQFFQGLEIVPNGITLTMDYQGRSTGEAFVQFASKEIAENALGKHKERIGHRYIEIFRSSRSEIKGFYDPPRRLLGQRPGPYDRPIGGRGGYYGAGRGSMYDRMRRGGDGYDGGYGGFDDYGGYNNYGYGNDGFDDRMRDGRGMGGHGYGGAGDASSGFHGGHFVHMRGLPFRATENDIANFFSPLNPIRVHIDIGADGRATGEADVEFVTHEDAVAAMSKDKNNMQHRYIELFLNSTPGGGSGMGGSGMGGYGRDGMDNQGGYGSVGRMGMGNNYSGGYGTPDGLGGYGRGGGGSGGYYGQGGMSGGGWRGMY
Regarding B7, the binding result in the assay with SDOS-eGFP (human) [2] is on record as “binds”.
